# Patent US20250082754A1 (NANJING LEGEND BIOTECH, published 2025)
# The chains behind the UniProt entries cited, without tags or fusion partners. Residues count along the entry.
# UniProt P20138, residues 145-228: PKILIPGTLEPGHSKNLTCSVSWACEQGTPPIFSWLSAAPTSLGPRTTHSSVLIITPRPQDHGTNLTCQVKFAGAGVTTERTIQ
# These are yes or no findings as the source states them, for the method shown. Some binding calls cover weakened binding; strength is not graded here.
# B1: AS200728C (scFv)
# scFv (VL-linker-VH): QAVVTQLSSMSGSPGQTVTITCTGSSSNIGGGYYLSWYQQLPGTAPKLLIYNVNNRASGVPNRFSGSKTGSLASLTITGLQAEDEADYYCGSYDESLSYVFGGGTHLTVLGGGGSGGGGSGGGGSQVQLVESGGGLVQPGGSLRVSCAASGFTFKNYYMGWVRQAPGKGLEWISGINSGGEVTTYADSVKDRFTISRDNAKNTLYLQMNSLKPDDTALYYCAGGEGSSWYPDYYYGNGYWGEGTLITVSS
# notes: Format as for f1; also called anti-CD33 IgG1 AS200728C; AS200728C scFv
# B2: AS199757 (scFv)
# scFv (VL-linker-VH): NFMLTQPPSVSGSPGQKFTISCTGSSNNIGDNYVNWYQHLPGTAPKLLIYSNNNRASGVPDRFSGSKSGSSASLTITGLQAEDEADYYCSSWDDSLSGFVFGGGTHLTVLGGGGSGGGGSGGGGSAVQLVESGGGLVQPGGSLRLTCAASGFTFDNYGMSWVRQAPGKGLEWVSAIMWNGGTTYYAEPMKGRFTISRDNAKNTVYLQMNSLKSEDTAVYYCARHGSSWYAMDYWGQGTQVTVSS
# notes: Format as for f1; also called anti-CD33 IgG1 AS199757; AS199757 scFv
# B3: AS199772 (scFv)
# scFv (VL-linker-VH): SYELTQSPSVSVALRQAAKITCRGDNIETKYAYWYQQKPGQSPLLVIYKDDNRPSGIPERFSGSNSGNMATLTISGAQAEDEADYYCQVWDSSANWVFGGGTHLTVLGGGGSGGGGSGGGGSQVQLQESGGGLVQPGGSLRLSCAASGFTFSSYWMYWVRQAPGKGLEWVSAMNTGGGSTYYGDSVKGRFTVSRDNAKNTLALQMNSLKPEDTALYYCARSWGGMYSGGYYEYSGMDYWGKGTLVTVSS
# notes: Format as for f1; also called anti-CD33 IgG1 AS199772; AS199772 scFv
# B4: AS199911 (scFv)
# scFv (VL-linker-VH): SYELTQPSALSVTLGQSAKITCQGDNFETTYVHWYQQKPGQAPVLVIYNDDSRPSGIPERFSGSNSGDRATLTISGAQAEDEGDYYCQSADTSGNAYVFGGGTHLTVLGGGGSGGGGSGGGGSAVQLVESGGGLVQPGGSLRLSCAASGFTFSRSDMSWVRQAPGKGLEWVSYINSGGGTNRYADSVKARFTIFRDNAKNTLYLQMNTLKPEDTAVYYCAKSGFDSDWIFGYLERWGQGTLVTVSS
# notes: Format as for f1; also called anti-CD33 IgG1 AS199911; AS199911 scFv
# B5: AS188893 (scFv)
# scFv (VL-linker-VH): SYELTQPSAVSVSLGQTARITCQGGNLGTSYVHWYQQKPGQAPVLVIYGDDSRPSGIPERFSGSSSGGTATLTISGAQAEDEADYYCQSYDSSSSVFGGGTHLTVLGGGGSGGGGSGGGGSQVQLQESGGGLVQPGGSLRLSCAASGFTFSNNWMYWVRQAPGKGLEWVSSIATGDGSTNSADSVKGRFTISRDNTKNMLYLQMNSLKSEDTALYYCAKGVNIDHDVGAGDYWGQGTQVTVSS
# notes: Format as for f1; also called anti-CD33 IgG1 AS188893; AS188893 scFv
# Biological target: T1, Human CD33 C2 domain (human, UniProt P20138)
# T1 construct: C2 domain only; also called C2-set Ig-like domain of human CD33
# Test: +/- column 'Human CD33 C2 domain' of the drawn table; legend: cell binding properties; assay not named on the sheet
row,binding,Binder
1,binds,B1
2,binds,B2
3,binds,B3
4,binds,B4
5,binds,B5
